Source: PubChem BioAssay AID234 (DTP/NCI, 2004)
The list is a part of this screen's results and no random one: it is rich in T/C values a quarter to a half above the control, in often repeated tests (any T/C) and in doses without a T/C. Other doses and runs of a compound stand elsewhere. T/C is the treated group as % of the vehicle group. Schedules are NCI's codes, taken here to give the interval after Q, in days (D) or hours (H), and the number of doses after X. Some entries give survivors of the animals treated and no T/C: the source files T/C as zero there, which appears to mark a toxic dose or a test without result, not a measured value. Counts of survivors are from the toxicity check (mostly the fifth day) where no day follows; animals may have died later. Some entries hold several experiments; the results are listed from low to high.

Tested on: C3AKF1 mice, hamster liver cystadenocarcinoma s.c., tumor weight T/C
Experiment: NCI In Vivo Anticancer Drug Screen. Data for tumor model Cystadenocarcinoma, Liver (No. 1) (Hamster) (subcutaneous) in C3AKF1 (CHKRF1) mice
Details: T/C endpoint: mean tumor weight, schedule: Q01DX010 (ip), higher T/C = larger tumour; for T/C: evaluated on day 15
Experimental: The antitumor activity of compounds was measured in mice bearing transplantable tumors. Survival or tumor size were measured and the results are expressed as the measurement made in the treated group (T) divided by the measurement made in the vehicle treated control group (C). The tumor model used in this assay is Cystadenocarcinoma, Liver (No. 1) (Hamster) (subcutaneous) in C3AKF1 (CHKRF1) mice

[1] = dose: 5.0 mg/kg/injection, vehicle: carboxymethylcellulose (CMC)

What does the source list for `CCC[CH2][Sn]1([CH2]CCC)[O]C(=O)C[S]1`?
survivor count (dose: 3.12 mg/kg/injection, vehicle: saline): 0 of 7; survivor count (dose: 6.25 mg/kg/injection, vehicle: saline): 0 of 7; survivor count (dose: 12.5 mg/kg/injection, vehicle: saline): 0 of 7; survivor count (dose: 25.0 mg/kg/injection, vehicle: saline): 0 of 7

For `C/C=C1\CN(C)[C@H]2Cc3c([nH]c4ccccc34)[C@@H](c3cc4[nH]c5c(c4cc3OC)CCN3C[C@H]4C[C@H](CC)[C@H]3[C@@]5(C(=O)OC)C4)C[C@H]1C2C(=O)OC` (stereo partly drawn), which survivor count (dose: 30.0 mg/kg/injection, vehicle: water) is on record?
Its survivor count is 1 of 7.

And the survivor count (dose: 45.0 mg/kg/injection, vehicle: water)?
Its survivor count is 0 of 7 and 1 of 8.

How did the survivor count (dose: 120.0 mg/kg/injection, vehicle: carboxymethylcellulose (CMC)) turn out when `O=C1N(Cl)C(=O)C(c2ccc(Cl)cc2)(c2ccc(Cl)cc2)N1Cl` was run?
The survivor count was 2 of 6.

Which T/C [1] does the source give for `O=c1[nH]c2cc(Cl)c(Cl)cc2o1` here?
The T/C was 127 % of control.

And the survivor count (dose: 19.0 mg/kg/injection, vehicle: carboxymethylcellulose (CMC))?
The survivor count was 0 of 7.

And the survivor count (dose: 150.0 mg/kg/injection, vehicle: carboxymethylcellulose (CMC))?
Its survivor count is 2 of 7.

`ClCCn1cnc2c(SCc3ccccc3Cl)ncnc21` was tested. Which survivor count (dose: 100.0 mg/kg/injection, vehicle: carboxymethylcellulose (CMC)) did it give?
Its survivor count is 3 of 6.

And the survivor count (dose: 400.0 mg/kg/injection, vehicle: carboxymethylcellulose (CMC))?
Its survivor count is 2 of 6.

What about the survivor count (dose: 600.0 mg/kg/injection, vehicle: carboxymethylcellulose (CMC)) of the same compound?
Its survivor count is 0 of 6.

How did the survivor count (dose: 120.0 mg/kg/injection, vehicle: saline) turn out when `C1CC[N-]CC1.C1CC[N-]CC1.C1CC[N-]CC1.C1CC[N-]CC1.[Cl][Co][Cl]` was run?
Its survivor count is 1 of 7.

With `[I][Hg][CH2]C1COCC([CH2][Hg][I])O1.[I][Hg][CH2]C1COCC([CH2][Hg][I])O1` (stereo not drawn) as the compound, how does the survivor count (dose: 80.0 mg/kg/injection, vehicle: carboxymethylcellulose (CMC)) read?
Its survivor count is 0 of 6.

How did the survivor count [1] turn out when `O=C(O)CCc1c[nH]c2ccc(N(CCCl)CCCl)cc12` was run?
The survivor count was 4 of 7.

And the survivor count (dose: 10.0 mg/kg/injection, vehicle: carboxymethylcellulose (CMC))?
Its survivor count is 0 of 7.

What about the survivor count (dose: 20.0 mg/kg/injection, vehicle: carboxymethylcellulose (CMC)) of the same compound?
The survivor count was 0 of 7.

What about the survivor count (dose: 40.0 mg/kg/injection, vehicle: carboxymethylcellulose (CMC)) of the same compound?
Its survivor count is 0 of 7.

How did the survivor count (dose: 230.0 mg/kg/injection, vehicle: carboxymethylcellulose (CMC)) turn out when `CCCCn1cnc2c(SC)nc(N)nc21` was run?
The survivor count was 4 of 7.

`CCC1=C(c2cc(Cl)c3ccccc3c2OCC(=O)O)OC(CC)(C(=O)c2cc(Cl)c3ccccc3c2OCC(=O)O)CC1` (stereo not drawn) was tested. Which survivor count (dose: 240.0 mg/kg/injection, vehicle: carboxymethylcellulose (CMC)) did it give?
The survivor count was 1 of 6.

Which survivor count (dose: 40.0 mg/kg/injection, vehicle: saline) does the source give for `O=C(Nc1ccc(C2=NCCN2)cc1)c1ccc(C(=O)Nc2ccc(C3=NCCN3)cc2)c(Cl)c1` here?
Its survivor count is 3 of 8.

With `CCOC1=CCCCC1` as the compound, how does the T/C (dose: 31.0 mg/kg/injection, vehicle: carboxymethylcellulose (CMC)) read?
The T/C was 135 % of control.
